Taken from: PubChem BioAssay AID1671195 (Yale University, 2021)
This is one part, drawn at random, of about 22,000 reagents. In the full data, about 1,510 (6.9%) were called active. 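Active includes knockdowns raising or lowering LDL uptake; positive z-scores mean more uptake, negative mean less.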 A number with no mark means an inactive call.

- Screen: 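Knockdowns that increase or decrease uptake of fluorescent LDL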 (primary screen)
- Cell system: human Huh7 hepatoma cells
- Reagent: siRNA pool against human genes, 18 nM
- Timing: about 2 to 2.5 days of knockdown, then 8 h LDL uptake
- Challenge: DiI-labelled LDL at 30 µg/ml for 8 h, in lipoprotein-deficient serum medium
- Detection: 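Per-cell DiI-LDL intensity by automated imaging; well means scaled to the plate median and given as a robust z-score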
- Reading the numbers: robust z-score: higher = more LDL uptake after knockdown
- Hit rule: 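Active when two or more replicates show a robust z-score above 2 or below -2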

RAB28 (RAB28, member RAS oncogene family): robust z-score, replicate 1 = -0.213; robust z-score, replicate 2 = -0.353; robust z-score, replicate 3 = 0.0749
RPL36 (ribosomal protein L36): robust z-score, replicate 1 = -1.32; robust z-score, replicate 2 = -0.768; robust z-score, replicate 3 = -0.746
FIS1 (fission, mitochondrial 1): robust z-score, replicate 1 = -0.0801; robust z-score, replicate 2 = 0.633; robust z-score, replicate 3 = -2.46
TAX1BP3 (Tax1 binding protein 3): robust z-score, replicate 1 = 0.268; robust z-score, replicate 2 = 1.58; robust z-score, replicate 3 = 1.68
LOC401053 (retired record): robust z-score, replicate 1 = 0.878; robust z-score, replicate 2 = 0.437; robust z-score, replicate 3 = -0.131
CD207 (CD207 molecule): robust z-score, replicate 1 = -1.7; robust z-score, replicate 2 = -0.0774; robust z-score, replicate 3 = -0.086
SLC26A6: robust z-score, replicate 1 = -0.454; robust z-score, replicate 2 = -0.546; robust z-score, replicate 3 = -0.0307
RHOV (ras homolog family member V): robust z-score, replicate 1 = -0.826; robust z-score, replicate 2 = -0.928; robust z-score, replicate 3 = -1.3
CLEC10A (C-type lectin domain containing 10A): robust z-score, replicate 1 = 0.299; robust z-score, replicate 2 = 1.63; robust z-score, replicate 3 = -0.623
BCKDHB (branched chain keto acid dehydrogenase E1 subunit beta): robust z-score, replicate 1 = 1.59; robust z-score, replicate 2 = 1.53; robust z-score, replicate 3 = 1.9
CFAP206 (cilia and flagella associated protein 206): robust z-score, replicate 1 = -0.756; robust z-score, replicate 2 = 1.06; robust z-score, replicate 3 = -0.213
MAD2L2 (mitotic arrest deficient 2 like 2): robust z-score, replicate 1 = -1.47; robust z-score, replicate 2 = -0.983; robust z-score, replicate 3 = -2.26

Single entries from the entries so far:
Result for MAD2L2 (mitotic arrest deficient 2 like 2) in “robust z-score, replicate 1”: -1.47
RHOV (ras homolog family member V), robust z-score, replicate 3 → -1.3
